Laboratory results as given in US20250145665A1, “MACROCYCLIC PEPTIDES USEFUL AS MODULATORS OF TNF ALPHA” (Bristol-Myers Squibb Company, priority 2023, published 2025).
Some results were stated once for a whole list of compounds, not compound by compound. Starred links: 1 amine or outer side, 2 acyl side, 3 side chain; linkers in the order of their positions; H or OH if unused. Positions of bridges follow the written chain, without caps; N, C: chain ends. Non-standard residues stand in square brackets, D forms with d. Residues, ends and D or L forms follow the SMILES beside them. *: point of attachment. Bip(4'-NHCO-C6H4-3-CH2COOH) = N[C@@H](Cc1ccc(-c2ccc(NC(=O)c3cccc(CC(=O)O)c3)cc2)cc1)C(=O)O; Bip(4'-NHCO-C6H4-4-CH2COOH) = N[C@@H](Cc1ccc(-c2ccc(NC(=O)c3ccc(CC(=O)O)cc3)cc2)cc1)C(=O)O; Bip(4'-NH) = O=C([C@H](Cc1ccc(-c2ccc(N[*:3])cc2)cc1)N[*:1])[*:2]; Bip(4'-COOH) = N[C@@H](Cc1ccc(-c2ccc(C(=O)O)cc2)cc1)C(=O)O; Bip(4'-NHAc) = CC(=O)Nc1ccc(-c2ccc(C[C@H](N)C(=O)O)cc2)cc1; dArg(ω-Bn) = N=C(NCCC[C@@H](N)C(=O)O)NCc1ccccc1; Ala(morpholin-4-yl) = N[C@@H](CN1CCOCC1)C(=O)O; Benzoyl(3-OCH2COOH) = O=C(O)COc1cccc(C(=O)*)c1; Phe(3-CONH2) = NC(=O)c1cccc(C[C@H](N)C(=O)O)c1; Bip = N[C@@H](Cc1ccc(-c2ccccc2)cc1)C(=O)O; 2Pal = N[C@@H](Cc1ccccn1)C(=O)O; 2Thi = N[C@@H](Cc1cccs1)C(=O)O; Cha = N[C@@H](CC1CCCCC1)C(=O)O; Tle = CC(C)(C)[C@H](N)C(=O)O; Sar = CNCC(=O)O

Amino acid sequences for entries named in this document (tags omitted). Residues count along the entry.
UniProt P01375, 77-233 limits assumed: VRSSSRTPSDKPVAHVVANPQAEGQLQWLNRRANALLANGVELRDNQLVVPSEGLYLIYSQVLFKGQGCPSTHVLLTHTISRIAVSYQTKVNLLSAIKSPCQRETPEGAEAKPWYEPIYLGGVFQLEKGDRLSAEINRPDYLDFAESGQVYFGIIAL

Biological target: TNFα (Homo sapiens, UniProt P01375)
Experiment: TNF-Induced HEK-Blue Assay
Type: cell-based
Settings: summary statement for all examples; read-out: IC50 values measured in the TNF induced HEK-Blue assay

IC50, ≤ 25 µM:
CC(C)C[C@@H]1NC(=O)[C@H](Cc2cccc(C(N)=O)c2)NC(=O)[C@H](C(C)C)NC(=O)[C@@H]2CCCN2C(=O)[C@H](C(C)C)NC(=O)[C@@H](CCCNC(=N)NCc2ccccc2)NC(=O)[C@H](CC(=O)O)NC(=O)[C@H](Cc2ccc(O)cc2)NC(=O)CN(C)C(=O)[C@H](Cc2ccc(-c3ccc(NC(=O)c4ccc(CC(=O)O)cc4)cc3)cc2)NC(=O)[C@H](Cc2ccc(-c3ccccc3)cc2)NC(=O)[C@H](CN2CCOCC2)NC(=O)CSC[C@@H](C(=O)NCC(N)=O)NC1=O [Example 602] ({CH2CO}-[Ala(morpholin-4-yl)][Bip][Bip(4'-NHCO-C6H4-4-CH2COOH)][Sar]YD[dArg(ω-Bn)]VPV[Phe(3-CONH2)]LCG-NH2; thioether N-13), CC(C)C[C@@H]1NC(=O)[C@H](Cc2cccc(C(N)=O)c2)NC(=O)[C@H](C(C)C)NC(=O)[C@@H]2CCCN2C(=O)[C@H](C(C)C)NC(=O)[C@@H](CCCNC(=N)NCc2ccccc2)NC(=O)[C@H](CC(=O)O)NC(=O)[C@H](Cc2ccc(O)cc2)NC(=O)CN(C)C(=O)[C@H](Cc2ccc(-c3ccc(NC(=O)c4cccc(CC(=O)O)c4)cc3)cc2)NC(=O)[C@H](Cc2ccc(-c3ccccc3)cc2)NC(=O)[C@H](CN2CCOCC2)NC(=O)CSC[C@@H](C(=O)NCC(N)=O)NC1=O [Example 603] ({CH2CO}-[Ala(morpholin-4-yl)][Bip][Bip(4'-NHCO-C6H4-3-CH2COOH)][Sar]YD[dArg(ω-Bn)]VPV[Phe(3-CONH2)]LCG-NH2; thioether N-13), CC[C@H](C)[C@@H]1NC(=O)[C@@H](CCCNC(=N)N)NC(=O)[C@H](CC(=O)O)NC(=O)[C@H](Cc2ccccn2)NC(=O)CN(C)C(=O)[C@H](Cc2ccc(-c3ccc(NC(C)=O)cc3)cc2)NC(=O)[C@H](Cc2ccc(-c3ccccc3)cc2)NC(=O)[C@H](CN2CCOCC2)NC(=O)CSC[C@@H](C(=O)NCC(N)=O)NC(=O)[C@H](CC(C)C)NC(=O)[C@H](Cc2cccs2)NC(=O)[C@H](C(C)C)NC(=O)[C@@H]2CCCN2C1=O [Example 604] ({CH2CO}-[Ala(morpholin-4-yl)][Bip][Bip(4'-NHAc)][Sar][2Pal]D[dR]IPV[2Thi]LCG-NH2; thioether N-13), CC(=O)Nc1ccc(-c2ccc(C[C@@H]3NC(=O)[C@H](Cc4ccc(-c5ccccc5)cc4)NC(=O)[C@H](C(C)(C)C)NC(=O)CSC[C@@H](C(=O)NCC(N)=O)NC(=O)[C@H](CC(C)C)NC(=O)[C@H](Cc4cccs4)NC(=O)[C@H](C(C)C)NC(=O)[C@@H]4CCCN4C(=O)[C@H](C(C)C)NC(=O)[C@@H](CCCNC(=N)N)NC(=O)[C@H](CC(=O)O)NC(=O)[C@H](Cc4ccccn4)NC(=O)CN(C)C3=O)cc2)cc1 [Example 605] ({CH2CO}-[Tle][Bip][Bip(4'-NHAc)][Sar][2Pal]D[dR]VPV[2Thi]LCG-NH2; thioether N-13), CC(C)C[C@@H]1NC(=O)[C@H](Cc2cccs2)NC(=O)[C@H](C(C)C)NC(=O)[C@@H]2CCCN2C(=O)[C@H](C(C)C)NC(=O)[C@@H](CCCNC(=N)N)NC(=O)[C@H](CC(=O)O)NC(=O)[C@H](Cc2ccccn2)NC(=O)CN(C)C(=O)[C@H](Cc2ccc(-c3ccc(NC(=O)c4cccc(OCC(=O)O)c4)cc3)cc2)NC(=O)[C@H](Cc2ccc(-c3ccccc3)cc2)NC(=O)[C@H](CN2CCOCC2)NC(=O)CSC[C@@H](C(=O)NCC(N)=O)NC1=O [Example 606] ({CH2CO}-[Ala(morpholin-4-yl)][Bip][Bip(4'-NH)](Benzoyl(3-OCH2COOH))[Sar][2Pal]D[dR]VPV[2Thi]LCG-NH2; thioether N-13), CC(C)C[C@@H]1NC(=O)[C@H](Cc2cccs2)NC(=O)[C@H](C(C)C)NC(=O)[C@@H]2CCCN2C(=O)[C@H](C(C)C)NC(=O)[C@@H](CCCNC(=N)N)NC(=O)[C@H](CC(=O)O)NC(=O)[C@H](Cc2ccccn2)NC(=O)CN(C)C(=O)[C@H](Cc2ccc(-c3ccc(NC(=O)c4ccc(CC(=O)O)cc4)cc3)cc2)NC(=O)[C@H](Cc2ccc(-c3ccccc3)cc2)NC(=O)[C@H](CN2CCOCC2)NC(=O)CSC[C@@H](C(=O)NCC(N)=O)NC1=O [Example 607] ({CH2CO}-[Ala(morpholin-4-yl)][Bip][Bip(4'-NHCO-C6H4-4-CH2COOH)][Sar][2Pal]D[dR]VPV[2Thi]LCG-NH2; thioether N-13), CC(C)C[C@@H]1NC(=O)[C@H](Cc2cccs2)NC(=O)[C@H](C(C)C)NC(=O)[C@@H]2CCCN2C(=O)[C@H](C(C)C)NC(=O)[C@@H](CCCNC(=N)N)NC(=O)[C@H](CC(=O)O)NC(=O)[C@H](Cc2ccccn2)NC(=O)CN(C)C(=O)[C@H](Cc2ccc(-c3ccc(NC(=O)c4cccc(CC(=O)O)c4)cc3)cc2)NC(=O)[C@H](Cc2ccc(-c3ccccc3)cc2)NC(=O)[C@H](CN2CCOCC2)NC(=O)CSC[C@@H](C(=O)NCC(N)=O)NC1=O [Example 608] ({CH2CO}-[Ala(morpholin-4-yl)][Bip][Bip(4'-NHCO-C6H4-3-CH2COOH)][Sar][2Pal]D[dR]VPV[2Thi]LCG-NH2; thioether N-13), CC(C)C[C@@H]1NC(=O)[C@H](Cc2cccs2)NC(=O)[C@H](C(C)C)NC(=O)[C@@H]2CCCN2C(=O)[C@H](C(C)C)NC(=O)[C@@H](CCCNC(=N)N)NC(=O)[C@H](CC(=O)O)NC(=O)[C@H](Cc2ccccn2)NC(=O)CN(C)C(=O)[C@H](Cc2ccc(-c3ccc(NC(=O)c4cccc(OCC(=O)O)c4)cc3)cc2)NC(=O)[C@H](Cc2ccc(-c3ccc(C(=O)O)cc3)cc2)NC(=O)[C@H](CN2CCOCC2)NC(=O)CSC[C@@H](C(=O)NCC(N)=O)NC1=O [Example 609] ({CH2CO}-[Ala(morpholin-4-yl)][Bip(4'-COOH)][Bip(4'-NH)](Benzoyl(3-OCH2COOH))[Sar][2Pal]D[dR]VPV[2Thi]LCG-NH2; thioether N-13), CC(C)C[C@@H]1NC(=O)[C@H](Cc2cccs2)NC(=O)[C@H](C(C)C)NC(=O)[C@@H]2CCCN2C(=O)[C@H](C(C)C)NC(=O)[C@@H](CCCNC(=N)N)NC(=O)[C@H](CC(=O)O)NC(=O)[C@H](Cc2ccccn2)NC(=O)CN(C)C(=O)[C@H](Cc2ccc(-c3ccc(NC(=O)c4cccc(CC(=O)O)c4)cc3)cc2)NC(=O)[C@H](Cc2ccc(-c3ccc(C(=O)O)cc3)cc2)NC(=O)[C@H](CN2CCOCC2)NC(=O)CSC[C@@H](C(=O)NCC(N)=O)NC1=O [Example 610] ({CH2CO}-[Ala(morpholin-4-yl)][Bip(4'-COOH)][Bip(4'-NHCO-C6H4-3-CH2COOH)][Sar][2Pal]D[dR]VPV[2Thi]LCG-NH2; thioether N-13), CC(C)C[C@@H]1NC(=O)[C@H](Cc2cccs2)NC(=O)[C@H](C(C)C)NC(=O)[C@@H]2CCCN2C(=O)[C@H](C(C)C)NC(=O)[C@@H](CCCNC(=N)N)NC(=O)[C@H](CC(=O)O)NC(=O)[C@H](Cc2ccccn2)NC(=O)CN(C)C(=O)[C@H](Cc2ccc(-c3ccc(NC(=O)c4ccc(CC(=O)O)cc4)cc3)cc2)NC(=O)[C@H](Cc2ccc(-c3ccc(C(=O)O)cc3)cc2)NC(=O)[C@H](CN2CCOCC2)NC(=O)CSC[C@@H](C(=O)NCC(N)=O)NC1=O [Example 611] ({CH2CO}-[Ala(morpholin-4-yl)][Bip(4'-COOH)][Bip(4'-NHCO-C6H4-4-CH2COOH)][Sar][2Pal]D[dR]VPV[2Thi]LCG-NH2; thioether N-13), CC(C)C[C@@H]1NC(=O)[C@H](Cc2cccs2)NC(=O)[C@H](C(C)C)NC(=O)[C@@H]2CCCN2C(=O)[C@H](C(C)C)NC(=O)[C@@H](CCCNC(=N)N)NC(=O)[C@H](CC(=O)O)NC(=O)[C@H](Cc2ccccn2)NC(=O)CN(C)C(=O)[C@H](Cc2ccc(-c3ccc(NC(=O)c4ccc(CC(=O)O)cc4)cc3)cc2)NC(=O)[C@H](Cc2ccc(-c3ccc(C(=O)O)cc3)cc2)NC(=O)[C@H](CC2CCCCC2)NC(=O)CSC[C@@H](C(=O)NCC(N)=O)NC1=O [Example 612] ({CH2CO}-[Cha][Bip(4'-COOH)][Bip(4'-NHCO-C6H4-4-CH2COOH)][Sar][2Pal]D[dR]VPV[2Thi]LCG-NH2; thioether N-13), CC(C)C[C@@H]1NC(=O)[C@H](Cc2cccs2)NC(=O)[C@H](C(C)C)NC(=O)[C@@H]2CCCN2C(=O)[C@H](C(C)C)NC(=O)[C@@H](CCCNC(=N)N)NC(=O)[C@H](CC(=O)O)NC(=O)[C@H](Cc2ccccn2)NC(=O)CN(C)C(=O)[C@H](Cc2ccc(-c3ccc(NC(=O)c4cccc(CC(=O)O)c4)cc3)cc2)NC(=O)[C@H](Cc2ccc(-c3ccc(C(=O)O)cc3)cc2)NC(=O)[C@H](CC2CCCCC2)NC(=O)CSC[C@@H](C(=O)NCC(N)=O)NC1=O [Example 613] ({CH2CO}-[Cha][Bip(4'-COOH)][Bip(4'-NHCO-C6H4-3-CH2COOH)][Sar][2Pal]D[dR]VPV[2Thi]LCG-NH2; thioether N-13), CC(C)C[C@@H]1NC(=O)[C@H](Cc2cccs2)NC(=O)[C@H](C(C)C)NC(=O)[C@@H]2CCCN2C(=O)[C@H](C(C)C)NC(=O)[C@@H](CCCNC(=N)N)NC(=O)[C@H](CC(=O)O)NC(=O)[C@H](Cc2ccccn2)NC(=O)CN(C)C(=O)[C@H](Cc2ccc(-c3ccc(NC(=O)c4cccc(OCC(=O)O)c4)cc3)cc2)NC(=O)[C@H](Cc2ccc(-c3ccc(C(=O)O)cc3)cc2)NC(=O)[C@H](CC2CCCCC2)NC(=O)CSC[C@@H](C(=O)NCC(N)=O)NC1=O [Example 614] ({CH2CO}-[Cha][Bip(4'-COOH)][Bip(4'-NH)](Benzoyl(3-OCH2COOH))[Sar][2Pal]D[dR]VPV[2Thi]LCG-NH2; thioether N-13), CC(C)C[C@@H]1NC(=O)[C@H](Cc2cccs2)NC(=O)[C@H](C(C)C)NC(=O)[C@@H]2CCCN2C(=O)[C@H](C(C)C)NC(=O)[C@@H](CCCNC(=N)N)NC(=O)[C@H](CC(=O)O)NC(=O)[C@H](Cc2ccccn2)NC(=O)CN(C)C(=O)[C@H](Cc2ccc(-c3ccc(NC(=O)c4cccc(OCC(=O)O)c4)cc3)cc2)NC(=O)[C@H](Cc2ccc(-c3ccc(C(=O)O)cc3)cc2)NC(=O)[C@H](C(C)(C)C)NC(=O)CSC[C@@H](C(=O)NCC(N)=O)NC1=O [Example 615] ({CH2CO}-[Tle][Bip(4'-COOH)][Bip(4'-NH)](Benzoyl(3-OCH2COOH))[Sar][2Pal]D[dR]VPV[2Thi]LCG-NH2; thioether N-13)
